The experiment deals with T1, Flag-PHLDB2 (UniProt Q86SQ0).
T1 sequence: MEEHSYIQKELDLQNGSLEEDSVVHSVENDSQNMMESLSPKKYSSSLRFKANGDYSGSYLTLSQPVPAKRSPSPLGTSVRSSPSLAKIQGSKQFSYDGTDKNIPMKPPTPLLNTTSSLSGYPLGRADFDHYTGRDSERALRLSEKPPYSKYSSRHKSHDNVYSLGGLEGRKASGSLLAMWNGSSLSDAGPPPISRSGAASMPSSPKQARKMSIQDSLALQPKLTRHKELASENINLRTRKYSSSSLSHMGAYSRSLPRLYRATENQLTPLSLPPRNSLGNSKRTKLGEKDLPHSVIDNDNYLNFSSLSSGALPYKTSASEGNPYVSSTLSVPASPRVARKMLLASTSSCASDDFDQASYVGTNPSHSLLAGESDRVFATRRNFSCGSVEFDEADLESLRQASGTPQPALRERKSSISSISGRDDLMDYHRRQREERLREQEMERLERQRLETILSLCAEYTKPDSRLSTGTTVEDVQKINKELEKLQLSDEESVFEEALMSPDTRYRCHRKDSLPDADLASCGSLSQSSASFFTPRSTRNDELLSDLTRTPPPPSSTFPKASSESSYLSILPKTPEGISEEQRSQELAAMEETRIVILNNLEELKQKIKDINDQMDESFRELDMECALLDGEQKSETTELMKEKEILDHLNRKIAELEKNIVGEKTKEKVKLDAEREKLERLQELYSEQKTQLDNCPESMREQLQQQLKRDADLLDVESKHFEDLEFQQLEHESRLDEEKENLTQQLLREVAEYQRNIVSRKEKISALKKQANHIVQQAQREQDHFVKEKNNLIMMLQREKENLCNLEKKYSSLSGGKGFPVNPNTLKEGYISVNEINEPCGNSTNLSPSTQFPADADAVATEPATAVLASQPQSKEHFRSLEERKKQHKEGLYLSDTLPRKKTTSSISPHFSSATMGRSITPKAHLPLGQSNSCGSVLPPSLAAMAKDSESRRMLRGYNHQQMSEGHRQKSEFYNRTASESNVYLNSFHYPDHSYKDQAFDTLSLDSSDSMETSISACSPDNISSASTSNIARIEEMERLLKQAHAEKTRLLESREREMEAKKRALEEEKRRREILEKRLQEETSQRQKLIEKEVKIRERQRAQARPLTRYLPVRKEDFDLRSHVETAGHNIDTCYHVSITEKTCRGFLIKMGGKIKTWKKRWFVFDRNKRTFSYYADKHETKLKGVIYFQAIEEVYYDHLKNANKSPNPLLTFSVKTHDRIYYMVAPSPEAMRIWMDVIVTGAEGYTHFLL
The experiment is described as follows: co-IP; HCT116 p53-/- cells transfected with HA-MDM2 with or without Flag-PHLDB2; lysate harvested 48 h post-transfection; precipitated with anti-Flag antibody, Western blot. Background: In western blotting, separated proteins are transferred to a membrane and probed.

The chains behind the UniProt entries cited, without tags or fusion partners.
UniProt Q00987: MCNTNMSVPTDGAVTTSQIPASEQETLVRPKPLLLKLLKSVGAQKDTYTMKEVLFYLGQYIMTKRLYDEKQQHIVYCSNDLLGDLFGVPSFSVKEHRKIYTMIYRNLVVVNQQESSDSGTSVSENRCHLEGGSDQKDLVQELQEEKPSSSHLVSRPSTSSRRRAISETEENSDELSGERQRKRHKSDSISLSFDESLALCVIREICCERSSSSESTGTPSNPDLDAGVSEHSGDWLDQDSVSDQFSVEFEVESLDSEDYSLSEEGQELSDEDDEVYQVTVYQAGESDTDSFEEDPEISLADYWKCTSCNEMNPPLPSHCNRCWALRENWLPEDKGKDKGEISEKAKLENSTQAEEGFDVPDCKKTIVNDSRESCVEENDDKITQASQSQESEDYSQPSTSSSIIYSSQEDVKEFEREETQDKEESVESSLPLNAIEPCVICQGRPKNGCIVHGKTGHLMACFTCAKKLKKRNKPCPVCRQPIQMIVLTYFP

Results are given in words; binding and its absence hold for the method and conditions named. In cells and extracts the contact can be indirect. Some entries that bind do so weakly or less than the wild type. Tags and fused reporters may be left off the sequences shown.

In the case of HA-MDM2 (from UniProt Q00987 1-491), the binding entry was “binds”.
